Source: the supplement of paper PMC7661543
± gives the standard deviation of the averaged measurements. Differences between knockout arms are mostly noise.

System: ZR-75-1
Test: relative cell number vs DMSO control (72 h) (% of DMSO); higher = less growth inhibition (more cells)
Method: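 QMAP-Seq: a pool of 5 breast cancer cell lines (ZR-75-1, SKBR3, HCC-38, MDA-MB-231, BT-20), each carrying 12 doxycycline-inducible Cas9 sgRNA perturbations (11 knockouts plus non-targeting sgNT), was treated with compounds for 72 h at four 10-fold doses (10 nM-10 uM or 1 nM-1 uM range). Barcodes were amplified and sequenced, and cell number was interpolated from 293T spike-in standard curves. The result is expressed as % of the median of DMSO wells. Two biological replicates.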

[1] = sgRNA knockout: sgATF3, 1000 nM
[2] = sgRNA knockout: sgATF3, 10000 nM
[3] = sgRNA knockout: sgATF4, 1000 nM
[4] = sgRNA knockout: sgATF4, 10000 nM
[5] = sgRNA knockout: sgATF6, 1000 nM
[6] = sgRNA knockout: sgATF6, 10000 nM
[7] = sgRNA knockout: sgATG7, 1000 nM
[8] = sgRNA knockout: sgATG7, 10000 nM
[9] = sgRNA knockout: sgERN1, 1000 nM
[10] = sgRNA knockout: sgERN1, 10000 nM
[11] = sgRNA knockout: sgHSF2, 1000 nM
[12] = sgRNA knockout: sgHSF2, 10000 nM
[13] = sgRNA knockout: sgNFE2L2, 10 nM
[14] = sgRNA knockout: sgNFE2L2, 100 nM
[15] = sgRNA knockout: sgNFE2L2, 1000 nM
[16] = sgRNA knockout: sgNFE2L2, 10000 nM
[17] = sgRNA knockout: sgSLC35F2, 10 nM
[18] = sgRNA knockout: sgSLC35F2, 100 nM
[19] = sgRNA knockout: sgSLC35F2, 1000 nM
[20] = sgRNA knockout: sgSLC35F2, 10000 nM
[21] = sgRNA knockout: sgXBP1, 1000 nM
[22] = sgRNA knockout: sgXBP1, 10000 nM

SMILES | relative cell number (sgRNA knockout: sgATF3, 10 nM) | relative cell number (sgRNA knockout: sgATF3, 100 nM) | relative cell number [1] | relative cell number [2] | relative cell number (sgRNA knockout: sgATF4, 10 nM) | relative cell number (sgRNA knockout: sgATF4, 100 nM) | relative cell number [3] | relative cell number [4] | relative cell number (sgRNA knockout: sgATF6, 10 nM) | relative cell number (sgRNA knockout: sgATF6, 100 nM) | relative cell number [5] | relative cell number [6] | relative cell number (sgRNA knockout: sgATG7, 10 nM) | relative cell number (sgRNA knockout: sgATG7, 100 nM) | relative cell number [7] | relative cell number [8] | relative cell number (sgRNA knockout: sgERN1, 10 nM) | relative cell number (sgRNA knockout: sgERN1, 100 nM) | relative cell number [9] | relative cell number [10] | relative cell number (sgRNA knockout: sgHSF2, 10 nM) | relative cell number (sgRNA knockout: sgHSF2, 100 nM) | relative cell number [11] | relative cell number [12] | relative cell number [13] | relative cell number [14] | relative cell number [15] | relative cell number [16] | relative cell number [17] | relative cell number [18] | relative cell number [19] | relative cell number [20] | relative cell number (sgRNA knockout: sgXBP1, 10 nM) | relative cell number (sgRNA knockout: sgXBP1, 100 nM) | relative cell number [21] | relative cell number [22]
CC(C)CC(=O)Nc1n[nH]c2c1CN(C(=O)C1CCN(C)CC1)C2(C)C | 102 ± 46 | 41.1 ± 6.3 | 47.5 ± 36 | 22.1 ± 3.1 | 134 ± 20 | 54.1 ± 4 | 37.1 ± 14 | 12.7 ± 6.7 | 71.8 ± 28 | 62.6 ± 15 | 23.6 ± 3.9 | 15.2 ± 2.9 | 91.1 ± 45 | 44.5 ± 2.5 | 45.5 ± 5.2 | 17.2 ± 3.2 | 98 ± 10 | 54.9 ± 5.6 | 32.8 ± 22 | 22.9 ± 4.1 | 90.33 ± 0.71 | 48.8 ± 10 | 36.5 ± 11 | 20.7 ± 4 | 98.6 ± 13 | 64.5 ± 6.4 | 42.8 ± 22 | 16.3 ± 8.5 | 102 ± 44 | 76.1 ± 1.9 | 34.7 ± 4.6 | 15 ± 10 | 88.3 ± 14 | 59.7 ± 5.2 | 38.9 ± 14 | 15.1 ± 1.2
Cc1c(Cn2c(C)nc3c(C(=O)O)cc(N4CCOCC4)cc32)cccc1C(F)(F)F | 140 ± 23 | 99.2 ± 16 | 82.6 ± 6.7 | 92.2 ± 24 | 111 ± 37 | 137 ± 40 | 88.3 ± 22 | 102 ± 37 | 82.4 ± 10 | 87.3 ± 14 | 98.1 ± 4 | 105 ± 37 | 104 ± 3.8 | 114 ± 45 | 101 ± 25 | 73.5 ± 5.1 | 116 ± 18 | 101 ± 8.4 | 88.5 ± 2.2 | 89.91 ± 0.42 | 120 ± 36 | 90.8 ± 27 | 90.52 ± 0.49 | 81.2 ± 11 | 127 ± 30 | 95.6 ± 9.8 | 83.8 ± 4.9 | 116 ± 33 | 76.8 ± 34 | 156 ± 43 | 85.4 ± 41 | 99.8 ± 16 | 138 ± 1.7 | 98.6 ± 12 | 84.8 ± 8.3 | 99.7 ± 22
Cc1cc(N2CCOCC2)cc2[nH]c(-c3c(NC[C@@H](O)c4cccc(Cl)c4)cc[nH]c3=O)nc12 | 115 ± 9.4 | 68.8 ± 15 | 60.8 ± 14 | 31.5 ± 0.56 | 65 ± 17 | 102 ± 54 | 118 ± 19 | 27.9 ± 11 | 64.6 ± 9.6 | 87.4 ± 22 | 74.9 ± 32 | 33.3 ± 17 | 82.5 ± 25 | 72.8 ± 1.8 | 64.4 ± 17 | 31.1 ± 4.1 | 80.2 ± 8 | 72.7 ± 1.8 | 84.3 ± 17 | 36.5 ± 4.9 | 107 ± 23 | 68.6 ± 9.3 | 76.4 ± 3.8 | 32.5 ± 2.4 | 75.8 ± 8.3 | 104 ± 3.7 | 74.88 ± 0.27 | 24.4 ± 0.69 | 57.3 ± 19 | 90.1 ± 98 | 43.8 ± 24 | 41.7 ± 35 | 82.4 ± 12 | 88 ± 9.3 | 84.1 ± 5.2 | 31 ± 3.1
